Some of the results follow.
Key:
Assay in all cases: log2 fold change, soluble protein after heating vs DMSO (PISA); higher = thermal stabilisation; K562 cells, 10 uM, 30 min; active = over 0.2 and 3.5 SD of the protein, either way, in both replicates (recomputed)
[1] = compound: C1=CC=C(C=C1)[C@H](COC2=CC3=C(C=C2)NC(=O)N3)NC(=O)C4=CC=CN(C4=O)CC5=CC(=C(C=C5)F)F
Summary of the method: (§1)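 Soluble protein was quantified by TMTpro 16plex LC-MS/MS after channel sums were equalised. It was obtained as the supernatant after 21,000xg for 90 min from pooled aliquots of K562 cells (2×10^6 cells/mL, 10 μM compound, 30 min) heated for 3 min across 48°C-58°C and extracted in PBS with 0.5% NP-40 at 4°C. Thermal stability values are relative to control samples and come from duplicates. They are given as log2 fold changes.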

Amino acid sequences for entries named in this document (tags omitted). A change or cut given only in a name is not applied to a line headed by its entry.
UniProt Q8N1Q1: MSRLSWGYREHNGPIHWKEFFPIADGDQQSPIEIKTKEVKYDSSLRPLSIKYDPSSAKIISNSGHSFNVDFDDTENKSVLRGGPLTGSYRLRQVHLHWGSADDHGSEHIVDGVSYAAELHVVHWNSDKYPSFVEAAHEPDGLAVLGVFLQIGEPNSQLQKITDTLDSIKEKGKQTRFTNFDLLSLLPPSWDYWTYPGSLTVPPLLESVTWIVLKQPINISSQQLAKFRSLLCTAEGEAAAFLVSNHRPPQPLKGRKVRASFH
UniProt O43852: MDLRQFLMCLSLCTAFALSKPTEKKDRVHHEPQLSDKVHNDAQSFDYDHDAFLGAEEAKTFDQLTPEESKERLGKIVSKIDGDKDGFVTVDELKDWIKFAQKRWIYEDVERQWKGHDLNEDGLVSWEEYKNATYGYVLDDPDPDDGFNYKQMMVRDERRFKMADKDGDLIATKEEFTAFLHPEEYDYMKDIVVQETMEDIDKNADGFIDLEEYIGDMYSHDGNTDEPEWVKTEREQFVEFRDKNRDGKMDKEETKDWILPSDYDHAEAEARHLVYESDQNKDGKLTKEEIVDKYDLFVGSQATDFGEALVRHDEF
UniProt Q01518, whole entry, looked up: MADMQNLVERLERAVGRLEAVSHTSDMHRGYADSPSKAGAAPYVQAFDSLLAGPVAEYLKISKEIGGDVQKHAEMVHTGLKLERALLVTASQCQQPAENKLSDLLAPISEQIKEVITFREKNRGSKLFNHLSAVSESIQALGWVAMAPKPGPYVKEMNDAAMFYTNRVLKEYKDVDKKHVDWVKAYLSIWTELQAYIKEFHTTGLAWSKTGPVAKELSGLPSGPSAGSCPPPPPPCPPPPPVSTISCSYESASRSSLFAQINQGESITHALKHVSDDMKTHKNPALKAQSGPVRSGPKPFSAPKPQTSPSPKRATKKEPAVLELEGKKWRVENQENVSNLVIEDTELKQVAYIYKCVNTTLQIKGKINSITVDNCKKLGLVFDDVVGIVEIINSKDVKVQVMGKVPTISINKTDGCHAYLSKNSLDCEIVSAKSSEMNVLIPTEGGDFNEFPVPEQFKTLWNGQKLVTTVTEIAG
UniProt Q96LW7: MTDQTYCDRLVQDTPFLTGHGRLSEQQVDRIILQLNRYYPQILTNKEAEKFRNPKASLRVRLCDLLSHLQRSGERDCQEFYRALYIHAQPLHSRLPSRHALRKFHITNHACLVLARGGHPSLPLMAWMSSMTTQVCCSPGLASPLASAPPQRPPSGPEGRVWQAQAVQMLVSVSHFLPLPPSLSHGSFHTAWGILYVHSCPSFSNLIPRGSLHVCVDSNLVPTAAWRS
UniProt Q9Y376: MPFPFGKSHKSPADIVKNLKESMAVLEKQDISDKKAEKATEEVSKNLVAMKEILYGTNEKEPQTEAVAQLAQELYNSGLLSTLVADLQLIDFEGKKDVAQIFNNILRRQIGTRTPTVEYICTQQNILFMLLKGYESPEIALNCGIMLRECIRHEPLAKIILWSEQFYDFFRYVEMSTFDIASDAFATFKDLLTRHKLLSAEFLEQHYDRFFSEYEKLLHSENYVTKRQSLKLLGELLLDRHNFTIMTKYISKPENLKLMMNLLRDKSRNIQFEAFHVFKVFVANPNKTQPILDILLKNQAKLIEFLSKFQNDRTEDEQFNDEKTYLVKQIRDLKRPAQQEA
UniProt O75155: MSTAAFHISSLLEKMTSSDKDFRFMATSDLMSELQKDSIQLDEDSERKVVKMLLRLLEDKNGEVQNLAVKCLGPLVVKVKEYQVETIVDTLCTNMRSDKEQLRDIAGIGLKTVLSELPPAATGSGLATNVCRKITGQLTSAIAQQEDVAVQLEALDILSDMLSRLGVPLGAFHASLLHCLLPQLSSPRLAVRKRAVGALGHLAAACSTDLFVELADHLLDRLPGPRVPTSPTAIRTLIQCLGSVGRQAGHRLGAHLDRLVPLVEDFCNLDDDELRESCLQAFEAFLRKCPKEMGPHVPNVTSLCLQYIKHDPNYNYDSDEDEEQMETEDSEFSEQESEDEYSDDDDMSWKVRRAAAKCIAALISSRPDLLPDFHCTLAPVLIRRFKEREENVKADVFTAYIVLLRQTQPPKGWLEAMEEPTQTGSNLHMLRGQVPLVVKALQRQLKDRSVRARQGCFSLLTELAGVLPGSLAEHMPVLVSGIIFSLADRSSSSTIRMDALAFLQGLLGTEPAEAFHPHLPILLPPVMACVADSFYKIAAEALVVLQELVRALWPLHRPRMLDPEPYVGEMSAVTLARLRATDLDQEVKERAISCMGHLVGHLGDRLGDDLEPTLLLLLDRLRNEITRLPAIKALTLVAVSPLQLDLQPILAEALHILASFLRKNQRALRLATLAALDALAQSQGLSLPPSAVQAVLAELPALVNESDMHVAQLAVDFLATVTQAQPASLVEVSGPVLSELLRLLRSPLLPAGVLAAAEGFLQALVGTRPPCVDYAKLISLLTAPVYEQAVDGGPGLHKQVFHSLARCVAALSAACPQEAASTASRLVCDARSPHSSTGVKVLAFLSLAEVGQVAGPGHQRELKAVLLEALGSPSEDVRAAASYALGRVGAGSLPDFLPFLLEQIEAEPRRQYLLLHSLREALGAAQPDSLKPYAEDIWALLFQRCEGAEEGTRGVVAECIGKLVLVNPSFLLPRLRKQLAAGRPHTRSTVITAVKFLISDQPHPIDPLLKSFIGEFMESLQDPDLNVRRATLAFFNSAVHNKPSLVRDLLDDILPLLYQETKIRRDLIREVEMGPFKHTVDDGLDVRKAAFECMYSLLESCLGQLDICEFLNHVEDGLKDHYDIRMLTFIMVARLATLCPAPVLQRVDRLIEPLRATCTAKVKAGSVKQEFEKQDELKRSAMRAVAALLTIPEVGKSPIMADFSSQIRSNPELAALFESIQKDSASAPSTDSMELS
UniProt Q96F05: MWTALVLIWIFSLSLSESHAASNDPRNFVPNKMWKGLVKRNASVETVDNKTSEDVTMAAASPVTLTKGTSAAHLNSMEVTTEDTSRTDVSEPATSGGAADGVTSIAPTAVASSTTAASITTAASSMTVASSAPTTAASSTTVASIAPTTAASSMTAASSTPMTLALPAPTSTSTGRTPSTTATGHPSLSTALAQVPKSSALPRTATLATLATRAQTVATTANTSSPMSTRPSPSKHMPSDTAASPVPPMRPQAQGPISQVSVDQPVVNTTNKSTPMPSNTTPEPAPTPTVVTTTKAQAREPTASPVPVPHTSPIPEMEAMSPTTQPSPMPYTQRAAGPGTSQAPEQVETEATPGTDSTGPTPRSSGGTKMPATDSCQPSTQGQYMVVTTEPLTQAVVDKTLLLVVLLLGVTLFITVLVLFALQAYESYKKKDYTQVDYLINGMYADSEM
UniProt P49069: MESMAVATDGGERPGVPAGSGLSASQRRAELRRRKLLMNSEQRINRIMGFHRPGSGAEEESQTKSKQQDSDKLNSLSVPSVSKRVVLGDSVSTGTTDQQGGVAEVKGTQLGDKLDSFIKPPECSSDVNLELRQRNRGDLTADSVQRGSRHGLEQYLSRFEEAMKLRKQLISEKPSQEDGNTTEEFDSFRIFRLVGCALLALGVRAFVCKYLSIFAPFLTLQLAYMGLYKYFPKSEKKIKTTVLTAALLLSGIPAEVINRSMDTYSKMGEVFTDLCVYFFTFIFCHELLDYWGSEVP
UniProt Q96K31: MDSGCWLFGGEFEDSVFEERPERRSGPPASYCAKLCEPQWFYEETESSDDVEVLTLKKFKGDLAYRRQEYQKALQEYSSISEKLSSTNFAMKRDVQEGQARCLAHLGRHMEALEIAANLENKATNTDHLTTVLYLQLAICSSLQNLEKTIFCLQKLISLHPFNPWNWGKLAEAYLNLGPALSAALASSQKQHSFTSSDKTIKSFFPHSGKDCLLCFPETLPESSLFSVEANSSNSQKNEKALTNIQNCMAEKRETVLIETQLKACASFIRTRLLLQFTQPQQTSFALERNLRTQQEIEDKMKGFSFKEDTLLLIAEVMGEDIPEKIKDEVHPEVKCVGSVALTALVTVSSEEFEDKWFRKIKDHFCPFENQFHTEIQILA
UniProt P47756, whole entry, looked up: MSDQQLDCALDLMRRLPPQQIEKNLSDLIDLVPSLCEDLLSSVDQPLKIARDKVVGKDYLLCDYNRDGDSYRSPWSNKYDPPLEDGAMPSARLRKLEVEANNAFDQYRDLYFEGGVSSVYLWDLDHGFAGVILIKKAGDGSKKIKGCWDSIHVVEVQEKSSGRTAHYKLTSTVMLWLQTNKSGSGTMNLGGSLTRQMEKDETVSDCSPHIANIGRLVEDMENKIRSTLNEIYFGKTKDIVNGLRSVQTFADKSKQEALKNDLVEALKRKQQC
UniProt Q8WUQ7: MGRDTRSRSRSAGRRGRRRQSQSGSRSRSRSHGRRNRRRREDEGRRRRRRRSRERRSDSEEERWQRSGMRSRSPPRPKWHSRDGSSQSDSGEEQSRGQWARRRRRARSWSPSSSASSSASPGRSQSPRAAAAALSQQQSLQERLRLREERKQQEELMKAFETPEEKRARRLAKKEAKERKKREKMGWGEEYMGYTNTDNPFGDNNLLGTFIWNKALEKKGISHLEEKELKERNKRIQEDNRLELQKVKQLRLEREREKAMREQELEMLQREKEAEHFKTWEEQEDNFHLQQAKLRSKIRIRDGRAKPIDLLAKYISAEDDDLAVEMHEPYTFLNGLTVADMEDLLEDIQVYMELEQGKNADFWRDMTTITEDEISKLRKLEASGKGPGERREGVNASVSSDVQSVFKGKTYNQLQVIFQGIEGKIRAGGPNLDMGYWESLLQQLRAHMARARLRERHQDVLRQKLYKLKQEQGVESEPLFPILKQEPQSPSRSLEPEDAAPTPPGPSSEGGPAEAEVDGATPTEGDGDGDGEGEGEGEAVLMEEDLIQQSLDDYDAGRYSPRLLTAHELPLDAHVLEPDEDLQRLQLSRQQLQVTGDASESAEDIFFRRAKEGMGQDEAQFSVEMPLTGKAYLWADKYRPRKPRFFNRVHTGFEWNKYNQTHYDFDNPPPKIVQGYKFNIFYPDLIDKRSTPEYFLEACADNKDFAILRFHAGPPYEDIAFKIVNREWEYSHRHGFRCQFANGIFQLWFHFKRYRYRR
UniProt Q96B23: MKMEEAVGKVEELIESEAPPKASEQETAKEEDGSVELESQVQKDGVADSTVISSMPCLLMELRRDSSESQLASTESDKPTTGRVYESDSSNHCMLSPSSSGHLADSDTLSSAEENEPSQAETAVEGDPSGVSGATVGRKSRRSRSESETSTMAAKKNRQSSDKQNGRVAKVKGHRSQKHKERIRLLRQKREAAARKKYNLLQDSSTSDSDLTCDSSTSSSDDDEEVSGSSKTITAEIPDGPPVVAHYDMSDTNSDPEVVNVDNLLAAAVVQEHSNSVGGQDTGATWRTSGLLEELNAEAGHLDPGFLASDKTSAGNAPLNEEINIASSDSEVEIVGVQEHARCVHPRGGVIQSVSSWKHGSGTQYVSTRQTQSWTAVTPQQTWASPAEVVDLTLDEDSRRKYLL
UniProt O14523: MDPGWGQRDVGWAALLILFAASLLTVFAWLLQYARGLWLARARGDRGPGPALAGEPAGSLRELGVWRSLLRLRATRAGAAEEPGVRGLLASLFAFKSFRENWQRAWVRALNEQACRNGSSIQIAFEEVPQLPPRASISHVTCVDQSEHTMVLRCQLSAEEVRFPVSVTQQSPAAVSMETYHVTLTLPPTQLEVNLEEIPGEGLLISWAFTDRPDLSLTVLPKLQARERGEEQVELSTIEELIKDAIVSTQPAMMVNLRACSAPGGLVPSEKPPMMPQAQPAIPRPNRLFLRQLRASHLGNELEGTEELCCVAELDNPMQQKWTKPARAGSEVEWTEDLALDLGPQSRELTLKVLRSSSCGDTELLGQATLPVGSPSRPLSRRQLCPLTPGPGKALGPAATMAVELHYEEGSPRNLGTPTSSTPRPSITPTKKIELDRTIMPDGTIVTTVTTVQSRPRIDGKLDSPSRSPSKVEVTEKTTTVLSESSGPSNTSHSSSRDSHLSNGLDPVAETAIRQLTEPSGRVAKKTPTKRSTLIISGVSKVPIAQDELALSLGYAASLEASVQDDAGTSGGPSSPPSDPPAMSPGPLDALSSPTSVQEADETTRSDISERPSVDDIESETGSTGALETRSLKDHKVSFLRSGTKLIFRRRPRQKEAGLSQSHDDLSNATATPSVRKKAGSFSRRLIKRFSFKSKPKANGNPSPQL
UniProt Q9H8G2: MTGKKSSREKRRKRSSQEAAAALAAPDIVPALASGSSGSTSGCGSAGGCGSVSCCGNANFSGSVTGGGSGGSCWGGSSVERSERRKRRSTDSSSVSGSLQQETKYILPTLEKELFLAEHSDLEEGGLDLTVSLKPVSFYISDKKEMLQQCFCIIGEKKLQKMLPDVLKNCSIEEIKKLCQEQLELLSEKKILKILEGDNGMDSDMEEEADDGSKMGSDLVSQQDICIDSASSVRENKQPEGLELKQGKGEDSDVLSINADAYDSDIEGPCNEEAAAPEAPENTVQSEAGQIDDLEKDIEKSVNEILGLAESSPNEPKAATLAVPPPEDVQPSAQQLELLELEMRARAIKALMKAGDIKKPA

[2] = compound: CC1=C(SC2=C1C(=N[C@H](C3=NN=C(N32)C)CC(=O)N)C4=CC=C(C=C4)Cl)C
Summary of the method: as §1

[3] = compound: CC1=C2C(=CC=C1)N=C(N(C2=O)C3=CC=CC=C3C)CN4C=NC5=C(N=CN=C54)N
Summary of the method: as §1

[4] = compound: Cc1sc2c(c1C)C(c1ccc(Cl)cc1)=N[C@@H](CC(=O)OC(C)(C)C)c1nnc(C)n1-2
Summary of the method: as §1

[5] = compound: c1ccc([C@@H]2C[C@H]2NC2CCNCC2)cc1
Summary of the method: as §1

Measured: log2 fold change

CANT1 (UniProt Q8WVQ1)
inactive: [1] -0.015 | [2] 0.014 | [3] 0.095 | [4] -0.033 | [5] 0.007

CA13 (UniProt Q8N1Q1)
inactive: [1] 0.014 | [2] 0.128 | [3] 0.092 | [4] 0.254 | [5] -0.169

C3orf33 (UniProt Q6P1S2)
inactive: [1] -0.018 | [2] 0.08 | [3] 0.048 | [4] -0.087 | [5] 0.009

C9orf78 (UniProt Q9NZ63)
inactive: [1] 0.001 | [2] -0.021 | [3] 0.005 | [4] 0.014 | [5] 0.044

BSG (UniProt P35613)
inactive: [1] 0.007 | [2] 0.079 | [3] 0.048 | [4] -0.006 | [5] 0.051

C1GALT1C1 (UniProt Q96EU7)
inactive: [1] 0.02 | [2] -0.004 | [3] -0.085 | [4] 0.05 | [5] -0.067

CAPN1 (UniProt P07384)
inactive: [1] -0.004 | [2] 0.004 | [3] -0.055 | [4] -0.037 | [5] 0.013

CALCOCO1 (UniProt Q9P1Z2)
inactive: [1] -0.049 | [2] 0 | [3] 0.095 | [4] -0.013 | [5] 0.038

BTF3 (UniProt P20290)
inactive: [1] -0.002 | [2] -0.03 | [3] -0.029 | [4] -0.013 | [5] -0.004

CALU isoform 4 (UniProt O43852)
inactive: [1] 0.058 | [2] 0.017 | [3] 0.058 | [4] 0.027 | [5] 0.017

C3 (UniProt P01024)
inactive: [1] -0.041 | [2] -0.065 | [3] -0.004 | [4] 0.053 | [5] 0.074

CAPRIN1 (UniProt Q14444)
inactive: [1] 0.063 | [2] -0.134 | [3] -0.181 | [4] 0.169 | [5] 0.071

C12orf29 (UniProt Q8N999)
inactive: [1] -0.001 | [2] 0.018 | [3] -0.027 | [4] 0.18 | [5] 0.046

C8orf33 isoform 2 (UniProt Q9H7E9)
inactive: [1] 0.16 | [2] -0.386 | [3] -0.505 | [4] 0.399 | [5] 0.018

CALM2 (UniProt P0DP24)
inactive: [1] 0.075 | [2] -0.016 | [3] -0.029 | [4] -0.022 | [5] 0.018

CAMK1 (UniProt Q14012)
inactive: [1] -0.141

C11orf68 (UniProt Q9H3H3)
inactive: [1] -0.049 | [2] 0.062 | [3] 0.089 | [4] -0.017 | [5] 0.002

C3AR1 (UniProt Q16581)
inactive: [1] -0.284

CAP1 isoform 2 (UniProt Q01518)
inactive: [1] -0.189

C1orf131 isoform 5 (UniProt Q8NDD1)
inactive: [1] 0.078 | [2] -0.192 | [3] -0.164 | [4] 0.11 | [5] 0.034

CAPZA2 (UniProt P47755)
inactive: [1] -0.016 | [2] 0.071 | [3] 0.035 | [4] -0.034 | [5] -0.012

CARD19 isoform 2 (UniProt Q96LW7)
inactive: [1] 0.059 | [2] 0.078 | [3] 0.104 | [4] -0.231 | [5] -0.05

Retrieved one by one from the list above, two records:
CARD19 isoform 2 (UniProt Q96LW7)
inactive: [1] 0.059 | [2] 0.078 | [3] 0.104 | [4] -0.231 | [5] -0.05

CAPZA2 (UniProt P47755)
inactive: [1] -0.016 | [2] 0.071 | [3] 0.035 | [4] -0.034 | [5] -0.012

(next part)

C1QBP (UniProt Q07021)
inactive: [1] -0.02 | [2] 0.088 | [3] 0.032 | [4] -0.054 | [5] 0.009

C4A (UniProt P0C0L4)
inactive: [1] -0.158 | [2] -0.067 | [3] 0.127 | [4] -0.101 | [5] -0.01

BTBD6 (UniProt Q96KE9)
inactive: [1] 0.12 | [2] 0.073 | [3] 0.04 | [4] -0.117 | [5] -0.099

CAB39 (UniProt Q9Y376)
inactive: [1] 0.014 | [2] 0.008 | [3] 0.011 | [4] -0.019 | [5] 0.01

C11orf98 (UniProt E9PRG8)
inactive: [1] 0.079 | [2] -0.279 | [3] -0.209 | [4] 0.17 | [5] 0.045

CAND2 (UniProt O75155)
inactive: [1] -0.006 | [2] 0.007 | [3] -0.024 | [4] 0.051 | [5] 0.069

CAPN1 (UniProt E9PLX0)
inactive: [1] -0.185

C11orf24 (UniProt Q96F05)
inactive: [1] 0.042

CAPN15 (UniProt O75808)
inactive: [1] 0.012

C15orf40 (UniProt Q8WUR7)
inactive: [1] -0.005 | [2] 0.013 | [3] 0.003 | [4] 0.063 | [5] 0.09

Copied from the entries so far (12 entries):
CAP1 isoform 2 (UniProt Q01518)
inactive: [1] -0.189

C1orf131 isoform 5 (UniProt Q8NDD1)
inactive: [1] 0.078 | [2] -0.192 | [3] -0.164 | [4] 0.11 | [5] 0.034

CAPZA2 (UniProt P47755)
inactive: [1] -0.016 | [2] 0.071 | [3] 0.035 | [4] -0.034 | [5] -0.012

CARD19 isoform 2 (UniProt Q96LW7)
inactive: [1] 0.059 | [2] 0.078 | [3] 0.104 | [4] -0.231 | [5] -0.05

C1QBP (UniProt Q07021)
inactive: [1] -0.02 | [2] 0.088 | [3] 0.032 | [4] -0.054 | [5] 0.009

C4A (UniProt P0C0L4)
inactive: [1] -0.158 | [2] -0.067 | [3] 0.127 | [4] -0.101 | [5] -0.01

BTBD6 (UniProt Q96KE9)
inactive: [1] 0.12 | [2] 0.073 | [3] 0.04 | [4] -0.117 | [5] -0.099

CAB39 (UniProt Q9Y376)
inactive: [1] 0.014 | [2] 0.008 | [3] 0.011 | [4] -0.019 | [5] 0.01

C11orf98 (UniProt E9PRG8)
inactive: [1] 0.079 | [2] -0.279 | [3] -0.209 | [4] 0.17 | [5] 0.045

CAND2 (UniProt O75155)
inactive: [1] -0.006 | [2] 0.007 | [3] -0.024 | [4] 0.051 | [5] 0.069

CAPN1 (UniProt E9PLX0)
inactive: [1] -0.185

C11orf24 (UniProt Q96F05)
inactive: [1] 0.042

Remaining list, next part

C2CD2 (UniProt Q9Y426)
inactive: [1] -0.022 | [2] -0.066 | [3] -0.076 | [4] -0.051 | [5] 0.105

C19orf53 (UniProt Q9UNZ5)
inactive: [1] 0.105 | [2] -0.258 | [3] -0.266 | [4] 0.203 | [5] -0.01

C12orf73 (UniProt Q69YU5)
inactive: [1] -0.029 | [2] 0.116 | [3] -0.108 | [4] 0.03 | [5] 0.082

CAPNS1 (UniProt P04632)
inactive: [1] 0.032 | [2] 0.024 | [3] 0.031 | [4] 0.009 | [5] 0

CAMLG (UniProt P49069)
inactive: [1] -0.008 | [2] 0.006 | [3] 0.114 | [4] -0.015 | [5] 0.035

CARHSP1 (UniProt Q9Y2V2)
inactive: [1] 0.03 | [2] 0.073 | [3] 0.03 | [4] 0.005 | [5] -0.007

C3orf38 (UniProt Q5JPI3)
inactive: [1] 0.056 | [2] 0.07 | [3] 0.246 | [4] 0.026 | [5] -0.027

C19orf25 (UniProt Q9UFG5)
inactive: [1] -0.016 | [2] 0.067 | [3] 0.471 | [4] -0.036 | [5] -0.065

C8orf82 (UniProt Q6P1X6)
inactive: [1] 0.024 | [2] -0.043 | [3] 0.055 | [4] 0.001 | [5] 0.026

C1orf50 (UniProt Q9BV19)
inactive: [1] -0.259 | [2] 0.111 | [3] 0.052 | [4] -0.054 | [5] 0.021

CAPZA1 (UniProt P52907)
inactive: [1] 0.013 | [2] 0.086 | [3] 0.073 | [4] -0.055 | [5] -0.025

C8orf76 (UniProt Q96K31)
inactive: [1] 0.009 | [2] -0.023 | [3] 0.044 | [4] 0.027 | [5] 0.017

CAPZB (UniProt P47756)
inactive: [1] 0.008 | [2] 0.01 | [3] 0.025 | [4] -0.024 | [5] -0.044

CAPZB isoform 2 (UniProt P47756)
inactive: [1] -0.011 | [2] 0.007 | [3] 0.006 | [4] 0.05 | [5] 0.024

CACTIN isoform 2 (UniProt Q8WUQ7)
inactive: [1] 0.052 | [2] 0.097 | [3] 0.126 | [4] 0.135 | [5] 0.092

CALR (UniProt P27797)
inactive: [1] 0.062 | [2] -0.022 | [3] -0.054 | [4] 0.002 | [5] -0.004

C9orf72 (UniProt Q96LT7)
inactive: [1] 0.02 | [2] 0.009 | [3] 0.085 | [4] -0.115 | [5] 0.002

C9orf64 (UniProt Q5T6V5)
inactive: [1] -0.15 | [2] 0.054 | [3] 0.097 | [4] 0.052 | [5] -0.066

CALCOCO2 isoform 4 (UniProt Q13137)
inactive: [1] -0.036 | [2] -0.002 | [3] -0.04 | [4] 0.049 | [5] 0.026

C18orf25 (UniProt Q96B23)
inactive: [1] 0.079 | [2] -0.03 | [3] -0.045 | [4] -0.026 | [5] -0.006

C2CD2L (UniProt O14523)
inactive: [1] 0.065 | [2] 0.031 | [3] 0.009 | [4] 0.01 | [5] 0.013

C6orf89 isoform 2 (UniProt Q6UWU4)
inactive: [1] 0.04 | [2] 0.057 | [3] -0.016 | [4] 0.007 | [5] -0.105

CAP1 (UniProt Q01518)
inactive: [1] -0.012 | [2] 0.05 | [3] 0.024 | [4] -0.025 | [5] -0.044

CAAP1 (UniProt Q9H8G2)
inactive: [1] 0.11 | [2] 0.105 | [3] -0.028 | [4] 0.026 | [5] 0.014
